# Results from PubChem BioAssay AID743255 (National Center for Advancing Translational Sciences (NCATS), 2014).
# Amino acid sequences for entries named in this document (tags omitted). A change or cut given only in a name is not applied to a line headed by its entry.
# UniProt O94782: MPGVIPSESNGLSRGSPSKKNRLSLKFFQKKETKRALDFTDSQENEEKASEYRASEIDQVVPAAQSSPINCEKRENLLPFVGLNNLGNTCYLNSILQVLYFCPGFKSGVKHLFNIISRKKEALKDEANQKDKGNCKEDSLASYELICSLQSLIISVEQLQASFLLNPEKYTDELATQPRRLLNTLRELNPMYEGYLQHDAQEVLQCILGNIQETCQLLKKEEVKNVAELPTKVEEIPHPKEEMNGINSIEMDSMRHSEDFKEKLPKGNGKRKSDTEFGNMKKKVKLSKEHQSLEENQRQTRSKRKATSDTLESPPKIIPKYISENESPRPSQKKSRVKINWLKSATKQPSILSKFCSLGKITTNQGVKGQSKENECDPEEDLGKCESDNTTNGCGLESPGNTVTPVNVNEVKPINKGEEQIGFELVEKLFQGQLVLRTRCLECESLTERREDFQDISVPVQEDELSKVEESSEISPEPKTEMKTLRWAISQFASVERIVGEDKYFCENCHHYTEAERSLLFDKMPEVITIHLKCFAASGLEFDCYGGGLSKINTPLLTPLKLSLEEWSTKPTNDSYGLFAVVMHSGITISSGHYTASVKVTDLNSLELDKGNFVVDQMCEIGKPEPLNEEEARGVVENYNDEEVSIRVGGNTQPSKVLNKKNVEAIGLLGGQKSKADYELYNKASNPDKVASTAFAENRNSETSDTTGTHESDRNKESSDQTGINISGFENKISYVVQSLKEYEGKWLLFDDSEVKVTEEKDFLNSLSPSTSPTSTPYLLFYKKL
# The campaign covered roughly 390,000 compounds. About 910 (0.23%) were called active. Inconclusive results, whose numbers are uncertain, are shown with a selection of clear calls. Calls follow the shape of the dose curve; as a rule, active = well fitted inhibition curve with a large enough effect; inconclusive = small, poorly fitted or top-dose-only effect; inactive = no such curve, though single readings can be large or run the other way. Potencies beside an inconclusive call are fits to weak or partial responses and may not hold up.
# Biological target: Ubiquitin carboxyl-terminal hydrolase 1 (Homo sapiens) (UniProt O94782)
# Test: Inhibitors of USP1/UAF1: Primary Screen; also: nearly all actives have a fitted effect of over 60% in size
# Conditions: recombinant USP1/UAF1, Ub-Rhodamine cleavage fluorescence; activity change, negative = inhibition: at 57.1 µM (top of the series)
# Outline: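 USP1/UAF1 complex at 1 nM was preincubated with compound for 15 min at room temperature, then Ub-Rho substrate (150nM final) was added. Fluorescence (480/540 nm) was read kinetically, 6 reads every 60 seconds.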
# % is scaled to controls: 0 for no effect and ±100 for the full control effect; potency is read from the fitted curve at half-maximal effect.
Structure (SMILES),Potency,"activity change, negative = inhibition"
O=C(CSc1nc2ccccc2c(=O)n1-c1ccccc1)N1CCc2ccccc2C1,"inconclusive: 1 µM [inhibitor, partial curve]",
Cc1ccc(C(=O)OCc2nnc(-c3ccccc3)o2)cc1S(=O)(=O)N1CCOCC1,,inactive: -4.7%
CCOc1cc(C(=O)N2CCn3c4c(c5cc(C)ccc53)CCCC42)cc(OCC)c1OCC (centres undefined),"inconclusive: 5.01 µM [inhibitor, partial curve]",
CC(C)CCNC(=O)c1cnc2sc(N3CCCCC3)nn2c1=O,"inconclusive: 5.62 µM [inhibitor, partial curve]",
CCN(CC)S(=O)(=O)c1ccc(N2CCOCC2)c(NC(=O)c2cc(C)cc(C)c2)c1,,inactive: -4.86%
CCOc1ccccc1NC(=O)c1cc(SC)ccc1Cl,"inconclusive: 35.5 µM [inhibitor, partial curve]",
CCOC(=O)c1c(NC(=O)C2=C(C)NC(=S)NC2c2ccc(F)cc2)sc(C)c1C (centres undefined),,inactive: -3%
O=[N+]([O-])c1ccc(-c2ccc(/C=N/Nc3nc(N4CCCCC4)nc(N4CCCCC4)n3)o2)cc1,"inconclusive: 31.6 µM [inhibitor, partial curve]",
CN(C)c1ccc(CNn2cnnc2)cc1,"inconclusive: 0.501 µM [inhibitor, full curve, poor fit]",
COc1ccc(NS(=O)(=O)c2cc(NC(=O)c3nc4nc(C)cc(C)n4n3)ccc2C)cc1,"inconclusive: 39.8 µM [inhibitor, partial curve, poor fit]",
CCC1(c2ccccc2)NC(=O)N(CC#N)C1=O (centres undefined),"inconclusive: 3.55 µM [inhibitor, full curve]",
CCOc1cccc(C(=O)Nc2cc(-c3ccc(C)cc3)no2)c1,"inconclusive: 7.08 µM [inhibitor, single point]",
COc1ccc(Nc2ncc(C(=O)N3CCN(c4ccc(F)cc4)CC3)c3ccccc23)cc1,inactive,
COC(=O)c1[nH]c(=O)c2ccccc2c1O,"inconclusive: 35.5 µM [inhibitor, partial curve]",
CC(C)(C)NC(=O)NC(=O)CSc1ncccn1,"inconclusive: 5.01 µM [inhibitor, partial curve]",
Cc1ccc(CNC(=O)c2ccc(CSCc3ccccc3C)o2)cc1,,inactive: -18.1%
COc1cc(/C=C2\SC(=S)N(NC(=O)c3ccccc3O)C2=O)ccc1O,"inconclusive: 39.8 µM [inhibitor, partial curve]",
O=[N+]([O-])c1c(C(Cl)Cl)nn(-c2ccccc2)c1N1CCCC1,"inconclusive: 0.708 µM [inhibitor, full curve, poor fit]",
O=C(Oc1cc(=O)oc2ccccc12)c1ccccc1,"inconclusive: 17.8 µM [inhibitor, partial curve]",
CCC(C(=O)OCC(=O)NC(=O)NC(C)(C)C)c1ccccc1 (centres undefined),,inactive: -22.8%
Cc1nnc(SC(C)C(=O)NC2CCCCC2)[nH]c1=O (centres undefined),,inactive: -3.78%
Cc1ccc(C(=O)N/C(=C/c2cccs2)C(=O)NCCCn2ccnc2)cc1,,inactive: -12.9%

# Entries of single compounds, quoted from the list.
# CN(C)c1ccc(CNn2cnnc2)cc1 as listed: Potency: inconclusive: 0.501 µM [inhibitor, full curve, poor fit]
# CCOc1ccccc1NC(=O)c1cc(SC)ccc1Cl as listed: Potency: inconclusive: 35.5 µM [inhibitor, partial curve]
# O=[N+]([O-])c1c(C(Cl)Cl)nn(-c2ccccc2)c1N1CCCC1 as listed: Potency: inconclusive: 0.708 µM [inhibitor, full curve, poor fit]

# Next part:

Structure (SMILES),Potency,"activity change, negative = inhibition"
O=C(c1ccccc1)c1ccc2ccccc2c1,,inactive: -9.18%
CN(C)c1nc(-c2ccccc2)ncc1S(=O)(=O)c1ccccc1,"inconclusive: 8.91 µM [inhibitor, full curve, poor fit]",
CCCCCCn1c(O)c(/C=C2\C=NN=C2c2ccccc2)sc1=S,,inactive: -25.8%
CCN(CC(=O)Nc1ccc(NC(C)=O)cc1)C(=O)CN1C(=O)C2CCCCC2C1=O (centres undefined),,inactive: 2.86%
Cc1cc(C)n2cnnc2n1,,inactive: -19.1%
CC1(OC(=O)C2CCCC2)C(=O)C=C2C=C(c3ccsc3)N(C3CCCC3)C=C2C1=O (centres undefined),"inconclusive: 11.2 µM [inhibitor, partial curve]",
O=C(NCc1ccccc1)c1c[nH]c2ccc(S(=O)(=O)Nc3ccc4c(c3)OCCO4)cc2c1=O,,inactive: 2.81%
O=S(=O)(c1ccc(F)cc1)N(Cc1nc(-c2ccc(Cl)cc2)no1)C1CCCCC1,,inactive: -21.4%
CCN(C(=O)c1ccc2c(OC)n(CC)nc2c1)c1ccc(OC)cc1,"inconclusive: 3.55 µM [inhibitor, full curve, poor fit]",
COC(=O)c1ccc(NC(=O)CSc2ncc3c(n2)-c2cc(Cl)ccc2N(Cc2ccccc2)S3(=O)=O)cc1,,inactive: -10.1%
CCOC(=O)/C(C#N)=C1\Nc2ccccc2N=C1N(CC(C)C)CC(C)C,"inconclusive: 31.6 µM [inhibitor, partial curve]",
Cc1ncc(S(=O)(=O)c2ccc(Cl)cc2)c(N)n1,,inactive: -0.71%
Oc1c(Cl)cc(Cl)c(Cl)c1Cc1c(O)c(Cl)cc(Cl)c1Cl,"inconclusive: 44.7 µM [inhibitor, partial curve, poor fit]",
N#C/C(=C\c1cccc([N+](=O)[O-])c1)C(=O)NCc1ccc(Cl)cc1,"inconclusive: 20 µM [inhibitor, partial curve]",
CC(C)C1OC2c3cccc4cccc(c34)C2N1c1ccccc1 (centres undefined),"inconclusive: 44.7 µM [inhibitor, partial curve, poor fit]",
O=C(COc1cc([N+](=O)[O-])cc2cccnc12)NCCC1=CCCCC1,"inconclusive: 50.1 µM [inhibitor, single point]",
C[C@H](CO)N1C[C@H](C)[C@@H](CN(C)CC2CC2)Oc2c(NS(=O)(=O)c3ccccc3)cccc2C1=O,"inconclusive: 5.01 µM [inhibitor, partial curve, poor fit]",
COc1cc(NC(=O)CSc2nc3nc(C)c(Cc4ccc(C)cc4)c(C)n3n2)cc(OC)c1OC,"inconclusive: 8.91 µM [inhibitor, partial curve, poor fit]",
O=C(Nc1ccc(F)cc1F)c1ccc2c(O)c(S(=O)(=O)c3ccc(Cl)cc3)c(=O)[nH]c2c1,,inactive: -2.04%
CCCCN(C)CCNC(=S)Nc1ccc2nc(N3CCN(CC)CC3)cc(C)c2c1,"inconclusive: 6.31 µM [inhibitor, single point]",
NCCCC(=O)N1c2ccccc2Sc2ccccc21,"inconclusive: 44.7 µM [inhibitor, partial curve]",
COc1ccc(N(CC(=O)Nc2cc(C)ccc2C)S(=O)(=O)c2ccc(OC)c(OC)c2)cc1,"inconclusive: 0.251 µM [inhibitor, full curve, poor fit]",
